Source: paper doi:10.1101/2020.05.29.123034

Biological target: T1, GST-MPP2-SH3GK (mouse) (UniProt Q9WV34)
T1 sequence: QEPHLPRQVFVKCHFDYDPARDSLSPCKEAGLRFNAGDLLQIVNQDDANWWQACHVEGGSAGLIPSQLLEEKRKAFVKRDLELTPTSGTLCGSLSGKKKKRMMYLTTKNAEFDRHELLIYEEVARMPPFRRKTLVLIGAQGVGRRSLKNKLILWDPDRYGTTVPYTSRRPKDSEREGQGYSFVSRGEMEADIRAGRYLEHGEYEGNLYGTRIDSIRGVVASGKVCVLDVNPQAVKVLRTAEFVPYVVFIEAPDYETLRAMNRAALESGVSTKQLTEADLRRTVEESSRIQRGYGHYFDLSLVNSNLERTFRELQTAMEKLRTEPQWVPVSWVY
Assay: affinity purification with mass spectrometry

| Substance | binding |
| --- | --- |
| endogenous GABAA receptor subunit α4 (from UniProt P28471 36-552) | binds |
| endogenous GABAA receptor subunit β2 (from UniProt P63138 26-474) | binds |
| endogenous GABAA receptor subunit β3 (from UniProt P63079 26-473) | binds |
| endogenous GABAA α1 from rat brain crude synaptosomes (from UniProt P62813 28-455) (receptor) | binds |

Results are given in words; binding and its absence hold for the method and conditions named. Binding seen in cells or lysates may run through a third protein. These calls come from enrichment with a bait or labelling near it, and not all partners need be listed.
